# Results are given in words; binding and its absence hold for the method and conditions named. Binding seen in cells or lysates may run through a third protein. A yes stands for co-enrichment or nearness to the bait. Other partners may have been found. Sequences can lack the tags named with a protein.
# Chains of the proteins cited; added tags and fusions are not shown.
# UniProt Q9BXW9: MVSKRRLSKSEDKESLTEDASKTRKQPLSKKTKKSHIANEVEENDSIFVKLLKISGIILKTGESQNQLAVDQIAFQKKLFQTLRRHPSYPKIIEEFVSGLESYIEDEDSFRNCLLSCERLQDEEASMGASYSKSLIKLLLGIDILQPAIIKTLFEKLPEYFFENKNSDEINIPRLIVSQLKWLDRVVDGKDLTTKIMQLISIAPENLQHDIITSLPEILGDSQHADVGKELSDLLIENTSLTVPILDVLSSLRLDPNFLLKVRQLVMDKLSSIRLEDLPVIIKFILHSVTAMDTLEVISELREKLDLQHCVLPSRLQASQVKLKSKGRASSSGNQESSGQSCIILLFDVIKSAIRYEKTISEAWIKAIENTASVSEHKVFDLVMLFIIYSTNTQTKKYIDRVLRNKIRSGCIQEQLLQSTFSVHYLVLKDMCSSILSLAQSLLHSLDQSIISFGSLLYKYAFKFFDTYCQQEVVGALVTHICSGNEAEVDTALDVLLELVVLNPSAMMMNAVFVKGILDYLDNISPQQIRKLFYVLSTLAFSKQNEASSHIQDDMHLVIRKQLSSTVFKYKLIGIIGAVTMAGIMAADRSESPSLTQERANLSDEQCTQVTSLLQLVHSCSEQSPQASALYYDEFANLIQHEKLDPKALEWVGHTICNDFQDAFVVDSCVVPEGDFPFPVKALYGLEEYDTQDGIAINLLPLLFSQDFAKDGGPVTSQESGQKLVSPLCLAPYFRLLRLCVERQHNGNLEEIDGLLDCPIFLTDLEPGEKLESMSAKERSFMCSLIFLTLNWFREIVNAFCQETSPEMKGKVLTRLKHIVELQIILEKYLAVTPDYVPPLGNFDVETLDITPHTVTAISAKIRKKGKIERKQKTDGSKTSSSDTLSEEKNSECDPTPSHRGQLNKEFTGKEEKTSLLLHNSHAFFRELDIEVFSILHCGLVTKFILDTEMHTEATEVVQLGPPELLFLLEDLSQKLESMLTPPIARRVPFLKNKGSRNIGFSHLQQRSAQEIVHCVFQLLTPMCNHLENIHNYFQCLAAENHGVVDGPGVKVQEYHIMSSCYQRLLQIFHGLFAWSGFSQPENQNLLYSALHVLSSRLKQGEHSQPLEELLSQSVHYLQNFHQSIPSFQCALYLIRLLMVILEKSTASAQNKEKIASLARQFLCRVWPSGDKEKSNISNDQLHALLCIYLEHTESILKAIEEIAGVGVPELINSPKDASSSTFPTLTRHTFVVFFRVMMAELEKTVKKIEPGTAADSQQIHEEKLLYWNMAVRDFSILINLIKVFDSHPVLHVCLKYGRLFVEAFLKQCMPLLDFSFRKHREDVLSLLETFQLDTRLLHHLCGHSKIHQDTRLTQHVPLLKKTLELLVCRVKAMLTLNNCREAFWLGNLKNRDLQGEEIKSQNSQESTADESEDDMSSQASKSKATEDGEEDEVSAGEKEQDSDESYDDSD
# UniProt Q5UIP0: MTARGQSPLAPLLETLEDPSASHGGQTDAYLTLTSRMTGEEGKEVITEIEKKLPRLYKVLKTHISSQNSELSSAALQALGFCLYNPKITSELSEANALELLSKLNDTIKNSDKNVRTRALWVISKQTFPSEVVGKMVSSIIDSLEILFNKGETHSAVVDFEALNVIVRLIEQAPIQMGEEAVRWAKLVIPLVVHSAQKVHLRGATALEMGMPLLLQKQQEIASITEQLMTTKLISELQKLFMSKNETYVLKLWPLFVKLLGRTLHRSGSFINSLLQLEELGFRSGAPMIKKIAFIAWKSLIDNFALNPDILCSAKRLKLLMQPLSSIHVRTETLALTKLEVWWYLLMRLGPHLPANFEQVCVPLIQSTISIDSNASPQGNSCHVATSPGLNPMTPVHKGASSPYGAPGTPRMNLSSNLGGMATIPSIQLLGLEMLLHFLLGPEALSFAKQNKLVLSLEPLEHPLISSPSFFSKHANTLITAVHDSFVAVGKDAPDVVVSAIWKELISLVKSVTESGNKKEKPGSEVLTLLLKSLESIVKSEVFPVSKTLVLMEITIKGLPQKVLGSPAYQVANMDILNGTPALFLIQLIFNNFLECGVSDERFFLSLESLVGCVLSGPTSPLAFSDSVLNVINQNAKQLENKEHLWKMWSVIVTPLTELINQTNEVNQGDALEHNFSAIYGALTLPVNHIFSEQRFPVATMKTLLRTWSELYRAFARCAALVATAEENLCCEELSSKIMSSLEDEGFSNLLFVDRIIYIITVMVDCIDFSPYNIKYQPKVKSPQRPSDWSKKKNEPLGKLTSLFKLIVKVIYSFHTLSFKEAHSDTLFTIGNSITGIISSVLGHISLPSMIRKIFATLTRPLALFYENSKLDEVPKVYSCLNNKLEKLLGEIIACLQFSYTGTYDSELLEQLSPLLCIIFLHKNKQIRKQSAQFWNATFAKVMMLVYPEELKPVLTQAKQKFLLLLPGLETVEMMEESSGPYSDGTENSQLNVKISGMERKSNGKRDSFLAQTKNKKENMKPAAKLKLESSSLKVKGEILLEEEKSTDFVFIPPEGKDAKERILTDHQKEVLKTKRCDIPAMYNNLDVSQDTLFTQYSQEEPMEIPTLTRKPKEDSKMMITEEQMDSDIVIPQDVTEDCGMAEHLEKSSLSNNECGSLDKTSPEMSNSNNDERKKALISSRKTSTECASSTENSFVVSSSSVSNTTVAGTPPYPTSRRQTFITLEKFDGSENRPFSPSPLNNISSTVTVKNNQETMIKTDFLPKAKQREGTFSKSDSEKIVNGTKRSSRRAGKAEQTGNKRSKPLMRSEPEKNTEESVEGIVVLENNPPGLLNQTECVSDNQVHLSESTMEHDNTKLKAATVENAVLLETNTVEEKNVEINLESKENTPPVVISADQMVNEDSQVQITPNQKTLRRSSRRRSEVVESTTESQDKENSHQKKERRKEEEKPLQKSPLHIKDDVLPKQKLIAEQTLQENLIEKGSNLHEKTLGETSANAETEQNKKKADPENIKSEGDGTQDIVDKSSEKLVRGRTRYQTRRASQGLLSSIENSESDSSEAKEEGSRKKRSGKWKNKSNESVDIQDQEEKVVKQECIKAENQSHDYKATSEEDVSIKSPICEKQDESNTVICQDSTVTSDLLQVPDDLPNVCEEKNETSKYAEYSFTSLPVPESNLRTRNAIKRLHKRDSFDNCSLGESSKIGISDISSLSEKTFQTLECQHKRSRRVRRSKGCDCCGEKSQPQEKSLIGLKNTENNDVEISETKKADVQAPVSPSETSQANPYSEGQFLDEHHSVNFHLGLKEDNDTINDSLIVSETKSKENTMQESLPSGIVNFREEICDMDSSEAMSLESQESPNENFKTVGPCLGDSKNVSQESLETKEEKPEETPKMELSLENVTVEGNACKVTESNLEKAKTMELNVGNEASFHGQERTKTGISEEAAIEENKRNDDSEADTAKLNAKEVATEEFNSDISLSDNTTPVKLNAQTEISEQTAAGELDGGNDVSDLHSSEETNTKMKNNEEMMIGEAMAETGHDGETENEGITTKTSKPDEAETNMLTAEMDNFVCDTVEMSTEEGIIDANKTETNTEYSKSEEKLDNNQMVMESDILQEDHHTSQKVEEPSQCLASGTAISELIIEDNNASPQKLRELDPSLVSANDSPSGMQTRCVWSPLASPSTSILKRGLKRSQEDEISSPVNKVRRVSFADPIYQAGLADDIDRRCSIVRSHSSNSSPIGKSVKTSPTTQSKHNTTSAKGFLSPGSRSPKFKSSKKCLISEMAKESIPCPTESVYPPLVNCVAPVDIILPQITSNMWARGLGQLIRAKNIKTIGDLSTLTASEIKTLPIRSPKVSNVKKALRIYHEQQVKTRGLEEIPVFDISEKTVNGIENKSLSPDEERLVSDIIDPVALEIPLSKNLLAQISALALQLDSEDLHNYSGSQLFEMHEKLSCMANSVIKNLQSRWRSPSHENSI
# UniProt P54132: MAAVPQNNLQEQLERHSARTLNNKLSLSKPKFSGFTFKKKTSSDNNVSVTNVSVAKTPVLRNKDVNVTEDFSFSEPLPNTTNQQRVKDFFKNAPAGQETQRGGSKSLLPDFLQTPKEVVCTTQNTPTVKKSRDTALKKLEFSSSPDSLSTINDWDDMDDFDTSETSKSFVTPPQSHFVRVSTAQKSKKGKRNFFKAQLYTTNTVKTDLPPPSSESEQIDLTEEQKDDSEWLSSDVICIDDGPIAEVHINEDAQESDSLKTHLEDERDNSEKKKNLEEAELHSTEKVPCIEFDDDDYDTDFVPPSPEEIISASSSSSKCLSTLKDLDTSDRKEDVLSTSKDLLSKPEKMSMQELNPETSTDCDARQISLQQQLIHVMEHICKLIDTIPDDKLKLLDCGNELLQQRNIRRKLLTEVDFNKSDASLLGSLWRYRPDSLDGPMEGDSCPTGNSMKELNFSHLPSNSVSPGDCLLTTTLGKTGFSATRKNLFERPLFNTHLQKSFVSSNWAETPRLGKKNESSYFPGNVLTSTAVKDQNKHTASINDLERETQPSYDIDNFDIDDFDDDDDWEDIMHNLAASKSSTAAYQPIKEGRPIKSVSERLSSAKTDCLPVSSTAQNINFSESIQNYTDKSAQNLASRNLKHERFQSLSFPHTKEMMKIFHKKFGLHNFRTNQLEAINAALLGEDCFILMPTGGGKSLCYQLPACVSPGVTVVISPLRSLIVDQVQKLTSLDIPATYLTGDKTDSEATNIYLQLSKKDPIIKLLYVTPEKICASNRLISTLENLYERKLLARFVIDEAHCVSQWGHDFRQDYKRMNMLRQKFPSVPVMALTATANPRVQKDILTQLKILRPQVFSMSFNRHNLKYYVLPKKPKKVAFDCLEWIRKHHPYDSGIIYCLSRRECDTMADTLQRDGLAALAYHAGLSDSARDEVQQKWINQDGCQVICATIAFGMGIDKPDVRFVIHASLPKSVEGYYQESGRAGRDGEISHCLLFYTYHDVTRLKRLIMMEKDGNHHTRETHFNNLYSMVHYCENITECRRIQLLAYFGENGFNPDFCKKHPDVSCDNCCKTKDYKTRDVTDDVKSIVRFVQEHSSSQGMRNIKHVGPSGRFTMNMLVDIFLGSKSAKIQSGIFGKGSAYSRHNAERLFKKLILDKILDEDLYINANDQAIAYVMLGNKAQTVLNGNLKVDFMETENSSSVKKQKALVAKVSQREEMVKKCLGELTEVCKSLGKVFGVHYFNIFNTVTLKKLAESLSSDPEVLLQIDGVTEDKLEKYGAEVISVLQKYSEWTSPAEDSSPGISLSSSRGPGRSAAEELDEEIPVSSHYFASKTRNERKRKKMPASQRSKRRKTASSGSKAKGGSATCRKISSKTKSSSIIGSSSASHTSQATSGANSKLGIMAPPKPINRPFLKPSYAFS
# T1: SFB-tagged wild-type TFIP11 (UniProt Q9UBB9)
# T1 sequence: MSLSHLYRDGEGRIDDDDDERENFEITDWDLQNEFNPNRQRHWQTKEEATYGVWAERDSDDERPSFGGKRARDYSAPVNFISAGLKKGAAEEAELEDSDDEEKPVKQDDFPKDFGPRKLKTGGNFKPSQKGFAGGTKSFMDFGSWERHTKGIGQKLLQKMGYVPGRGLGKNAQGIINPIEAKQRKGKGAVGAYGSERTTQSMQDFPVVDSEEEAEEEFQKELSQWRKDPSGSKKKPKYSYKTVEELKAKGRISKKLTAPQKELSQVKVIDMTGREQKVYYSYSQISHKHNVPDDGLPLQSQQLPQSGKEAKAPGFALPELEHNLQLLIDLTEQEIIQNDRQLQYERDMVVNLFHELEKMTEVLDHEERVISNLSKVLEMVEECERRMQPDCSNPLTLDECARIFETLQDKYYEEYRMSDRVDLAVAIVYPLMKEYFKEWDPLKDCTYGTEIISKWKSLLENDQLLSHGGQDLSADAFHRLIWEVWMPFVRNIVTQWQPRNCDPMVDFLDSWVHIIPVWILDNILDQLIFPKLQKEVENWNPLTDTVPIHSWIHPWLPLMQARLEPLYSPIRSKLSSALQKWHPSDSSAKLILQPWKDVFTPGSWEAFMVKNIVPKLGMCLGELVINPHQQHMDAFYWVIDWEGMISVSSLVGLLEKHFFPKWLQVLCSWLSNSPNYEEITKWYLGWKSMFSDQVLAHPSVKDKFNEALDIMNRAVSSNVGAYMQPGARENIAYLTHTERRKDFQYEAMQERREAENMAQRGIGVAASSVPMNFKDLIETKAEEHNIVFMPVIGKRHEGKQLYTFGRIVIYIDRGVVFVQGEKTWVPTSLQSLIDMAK
# T2: SFB-tagged wild-type TFIP11, Q9UBB9
# T2 chain: T1 sequence
# B1: RMI2 (BLAP18) (protein, UniProt Q96E14 1-147)
# chain: MAAAADSFSGGPAGVRLPRSPPLKVLAEQLRRDAEGGPGAWRLSRAAAGRGPLDLAAVWMQGRVVMADRGEARLRDPSGDFSVRGLERVPRGRPCLVPGKYVMVMGVVQACSPEPCLQAVKMTDLSDNPIHESMWELEVEDLHRNIP
# B2: RMI1 (BLAP75) (protein, UniProt Q9H9A7 1-625)
# chain: MNVTSIALRAETWLLAAWHVKVPPMWLEACINWIQEENNNVNLSQAQMNKQVFEQWLLTDLRDLEHPLLPDGILEIPKGELNGFYALQINSLVDVSQPAYSQIQKLRGKNTTNDLVTAEAQVTPKPWEAKPSRMLMLQLTDGIVQIQGMEYQPIPILHSDLPPGTKILIYGNISFRLGVLLLKPENVKVLGGEVDALLEEYAQEKVLARLIGEPDLVVSVIPNNSNENIPRVTDVLDPALGPSDEELLASLDENDELTANNDTSSERCFTTGSSSNTIPTRQSSFEPEFVISPRPKEEPSNLSIHVMDGELDDFSLEEALLLEETVQKEQMETKELQPLTFNRNADRSIERFSHNPNTTNNFSLTCKNGNNNWSEKNVSEQMTNEDKSFGCPSVRDQNRSIFSVHCNVPLAHDFTNKEKNLETDNKIKQTSSSDSHSLNNKILNREVVNYVQKRNSQISNENDCNLQSCSLRSSENSINLSIAMDLYSPPFVYLSVLMASKPKEVTTVKVKAFIVTLTGNLSSSGGIWSITAKVSDGTAYLDVDFVDEILTSLIGFSVPEMKQSKKDPLQYQKFLEGLQKCQRDLIDLCCLMTISFNPSLSKAMVLALQDVNMEHLENLKKRLNK
# B3: topoisomerase IIIalpha (TOP3A) (protein, UniProt Q13472 1-1001)
# chain: MIFPVARYALRWLRRPEDRAFSRAAMEMALRGVRKVLCVAEKNDAAKGIADLLSNGRMRRREGLSKFNKIYEFDYHLYGQNVTMVMTSVSGHLLAHDFQMQFRKWQSCNPLVLFEAEIEKYCPENFVDIKKTLERETRQCQALVIWTDCDREGENIGFEIIHVCKAVKPNLQVLRARFSEITPHAVRTACENLTEPDQRVSDAVDVRQELDLRIGAAFTRFQTLRLQRIFPEVLAEQLISYGSCQFPTLGFVVERFKAIQAFVPEIFHRIKVTHDHKDGIVEFNWKRHRLFNHTACLVLYQLCVEDPMATVVEVRSKPKSKWRPQALDTVELEKLASRKLRINAKETMRIAEKLYTQGYISYPRTETNIFPRDLNLTVLVEQQTPDPRWGAFAQSILERGGPTPRNGNKSDQAHPPIHPTKYTNNLQGDEQRLYEFIVRHFLACCSQDAQGQETTVEIDIAQERFVAHGLMILARNYLDVYPYDHWSDKILPVYEQGSHFQPSTVEMVDGETSPPKLLTEADLIALMEKHGIGTDATHAEHIETIKARMYVGLTPDKRFLPGHLGMGLVEGYDSMGYEMSKPDLRAELEADLKLICDGKKDKFVVLRQQVQKYKQVFIEAVAKAKKLDEALAQYFGNGTELAQQEDIYPAMPEPIRKCPQCNKDMVLKTKKNGGFYLSCMGFPECRSAVWLPDSVLEASRDSSVCPVCQPHPVYRLKLKFKRGSLPPTMPLEFVCCIGGCDDTLREILDLRFSGGPPRASQPSGRLQANQSLNRMDNSQHPQPADSRQTGSSKALAQTLPPPTAAGESNSVTCNCGQEAVLLTVRKEGPNRGRQFFKCNGGSCNFFLWADSPNPGAGGPPALAYRPLGASLGCPPGPGIHLGGFGNPGDGSGSGTSCLCSQPSVTRTVQKDGPNKGRQFHTCAKPREQQCGFFQWVDENTAPGTSGAPSWTGDRGRTLESEARSKRPRASSSDMGSTAKKPRKCSLCHQPGHTRPFCPQNR
# B4: FANCI, Q9NVI1 1-1328 (protein)
# chain: MDQKILSLAAEKTADKLQEFLQTLREGDLTNLLQNQAVKGKVAGALLRAIFKGSPCSEEAGTLRRRKIYTCCIQLVESGDLQKEIASEIIGLLMLEAHHFPGPLLVELANEFISAVREGSLVNGKSLELLPIILTALATKKENLAYGKGVLSGEECKKQLINTLCSGRWDQQYVIQLTSMFKDVPLTAEEVEFVVEKALSMFSKMNLQEIPPLVYQLLVLSSKGSRKSVLEGIIAFFSALDKQHNEEQSGDELLDVVTVPSGELRHVEGTIILHIVFAIKLDYELGRELVKHLKVGQQGDSNNNLSPFSIALLLSVTRIQRFQDQVLDLLKTSVVKSFKDLQLLQGSKFLQNLVPHRSYVSTMILEVVKNSVHSWDHVTQGLVELGFILMDSYGPKKVLDGKTIETSPSLSRMPNQHACKLGANILLETFKIHEMIRQEILEQVLNRVVTRASSPISHFLDLLSNIVMYAPLVLQSCSSKVTEAFDYLSFLPLQTVQRLLKAVQPLLKVSMSMRDCLILVLRKAMFANQLDARKSAVAGFLLLLKNFKVLGSLSSSQCSQSLSVSQVHVDVHSHYNSVANETFCLEIMDSLRRCLSQQADVRLMLYEGFYDVLRRNSQLANSVMQTLLSQLKQFYEPKPDLLPPLKLEACILTQGDKISLQEPLDYLLCCIQHCLAWYKNTVIPLQQGEEEEEEEEAFYEDLDDILESITNRMIKSELEDFELDKSADFSQSTSIGIKNNICAFLVMGVCEVLIEYNFSISSFSKNRFEDILSLFMCYKKLSDILNEKAGKAKTKMANKTSDSLLSMKFVSSLLTALFRDSIQSHQESLSVLRSSNEFMRYAVNVALQKVQQLKETGHVSGPDGQNPEKIFQNLCDITRVLLWRYTSIPTSVEESGKKEKGKSISLLCLEGLQKIFSAVQQFYQPKIQQFLRALDVTDKEGEEREDADVSVTQRTAFQIRQFQRSLLNLLSSQEEDFNSKEALLLVTVLTSLSKLLEPSSPQFVQMLSWTSKICKENSREDALFCKSLMNLLFSLHVSYKSPVILLRDLSQDIHGHLGDIDQDVEVEKTNHFAIVNLRTAAPTVCLLVLSQAEKVLEEVDWLITKLKGQVSQETLSEEASSQATLPNQPVEKAIIMQLGTLLTFFHELVQTALPSGSCVDTLLKDLCKMYTTLTALVRYYLQVCQSSGGIPKNMEKLVKLSGSHLTPLCYSFISYVQNKSKSLNYTGEKKEKPAAVATAMARVLRETKPIPNLIFAIEQYEKFLIHLSKKSKVNLMQHMKLSTSRDFKIKGNILDMVLREDGEDENEEGTASEHGGQNKEPAKKKRKK
# Target: T1, SFB-tagged wild-type TFIP11
# Assay: affinity purification with mass spectrometry; tandem affinity purification of SFB-TFIP11 from stable HEK293T cells: NETN buffer (20 mM Tris-HCl pH 8.0, 100 mM NaCl, 1 mM EDTA, 0.5% Nonidet P-40) with Benzonase, streptavidin beads 4 °C 2 h, biotin elution, S-protein beads 4 °C 2 h, SDS-PAGE …
# Conditions: not given
row,binding,Molecule
1,binds,FANCD2 (from UniProt Q9BXW9 1-1451)
2,binds,RIF1 (from UniProt Q5UIP0 1-2472)
3,binds,BLM helicase (Bloom syndrome gene product) (from UniProt P54132 1-1417)
4,binds,B1
5,binds,B2
6,binds,B3

# Target: T2, SFB-tagged wild-type TFIP11, Q9UBB9
# Assay: as above
# Conditions: remark: other sources report otherwise
row,binding,Molecule
1,binds,B4

# Source: article PMC10858868, “TFIP11 promotes replication fork reversal to preserve genome stability”
